This is one part of the list. The signal is at background level for most entries.
How the values were obtained:
Assay in all cases: fluorescence intensity of antibody binding to polysaccharide-coupled beads; higher = stronger binding
[1] = molecular target: pneumococcal polysaccharide C-Poly-1
[2] = molecular target: pneumococcal polysaccharide C-Poly-2
[3] = molecular target: pneumococcal polysaccharide Pn1
[4] = molecular target: pneumococcal polysaccharide Pn10A
[5] = molecular target: pneumococcal polysaccharide Pn10B
[6] = molecular target: pneumococcal polysaccharide Pn10C
[7] = molecular target: pneumococcal polysaccharide Pn10F
[8] = molecular target: pneumococcal polysaccharide Pn11A
[9] = molecular target: pneumococcal polysaccharide Pn11B
[10] = molecular target: pneumococcal polysaccharide Pn11C
[11] = molecular target: pneumococcal polysaccharide Pn11D
[12] = molecular target: pneumococcal polysaccharide Pn11F
[13] = molecular target: pneumococcal polysaccharide Pn12A
[14] = molecular target: pneumococcal polysaccharide Pn12B
[15] = molecular target: pneumococcal polysaccharide Pn12F
[16] = molecular target: pneumococcal polysaccharide Pn13
[17] = molecular target: pneumococcal polysaccharide Pn14
[18] = molecular target: pneumococcal polysaccharide Pn15A
[19] = molecular target: pneumococcal polysaccharide Pn15B
[20] = molecular target: pneumococcal polysaccharide Pn15C
[21] = molecular target: pneumococcal polysaccharide Pn15F
[22] = molecular target: pneumococcal polysaccharide Pn16A
[23] = molecular target: pneumococcal polysaccharide Pn16F
[24] = antibody concentration 0.1 ng/mL
[25] = antibody concentration 0.534724 ng/mL
[26] = antibody concentration 2.8593 ng/mL
[27] = antibody concentration 15.2894 ng/mL
[28] = antibody concentration 81.7561 ng/mL
[29] = antibody concentration 437.17 ng/mL
[30] = antibody concentration 2337.65 ng/mL
[31] = antibody concentration 12500 ng/mL

B1: 3S41.2 (protein)
chain 1: EVQLVESGGGLVQPGGSLRLSCATSGFTFRNYWMYWFRQAPGKGLDWVSSISDSSSNTFYSDSVKGRFTISRDNAKNTLYLQMNSLRAEDTAVYYCARRPIAAATGVYWYFDLWGPGTPITVSS
chain 2: QAALTQPPSMSGSPGQSVTISCTGTSSDIGGYNRVSWYQQYPGKAPKLMIYEVSKRPSGVSDRFSGSKSGNTAALTISGLQAADEADYYCSSYAGSYTFVLFGGGTRLTVL
fluorescence intensity [1, 24]: 26.5 MFI | fluorescence intensity [1, 25]: 28 MFI | fluorescence intensity [1, 26]: 28.2 MFI | fluorescence intensity [1, 27]: 26 MFI | fluorescence intensity [1, 28]: 27.5 MFI | fluorescence intensity [1, 29]: 30.5 MFI | fluorescence intensity [1, 30]: 94 MFI | fluorescence intensity [1, 31]: 728 MFI | fluorescence intensity [2, 24]: 19.5 MFI | fluorescence intensity [2, 25]: 22 MFI | fluorescence intensity [2, 26]: 22.5 MFI | fluorescence intensity [2, 27]: 21 MFI | fluorescence intensity [2, 28]: 21.5 MFI | fluorescence intensity [2, 29]: 25.5 MFI | fluorescence intensity [2, 30]: 77.8 MFI | fluorescence intensity [2, 31]: 654 MFI | fluorescence intensity [3, 24]: 14.2 MFI | fluorescence intensity [3, 25]: 15 MFI | fluorescence intensity [3, 26]: 13 MFI | fluorescence intensity [3, 27]: 14.5 MFI | fluorescence intensity [3, 28]: 13.5 MFI | fluorescence intensity [3, 29]: 16.5 MFI | fluorescence intensity [3, 30]: 25.5 MFI | fluorescence intensity [3, 31]: 84.5 MFI | fluorescence intensity [4, 24]: 27 MFI | fluorescence intensity [4, 25]: 28 MFI | fluorescence intensity [4, 26]: 27.5 MFI | fluorescence intensity [4, 27]: 26.5 MFI | fluorescence intensity [4, 28]: 26.5 MFI | fluorescence intensity [4, 29]: 27.5 MFI | fluorescence intensity [4, 30]: 34 MFI | fluorescence intensity [4, 31]: 67.8 MFI | fluorescence intensity [5, 24]: 23.2 MFI | fluorescence intensity [5, 25]: 23.5 MFI | fluorescence intensity [5, 26]: 23.5 MFI | fluorescence intensity [5, 27]: 23.8 MFI | fluorescence intensity [5, 28]: 23 MFI | fluorescence intensity [5, 29]: 25 MFI | fluorescence intensity [5, 30]: 28.5 MFI | fluorescence intensity [5, 31]: 40 MFI | fluorescence intensity [6, 24]: 17.5 MFI | fluorescence intensity [6, 25]: 16.5 MFI | fluorescence intensity [6, 26]: 16 MFI | fluorescence intensity [6, 27]: 16.5 MFI | fluorescence intensity [6, 28]: 16.5 MFI | fluorescence intensity [6, 29]: 18 MFI | fluorescence intensity [6, 30]: 20.2 MFI | fluorescence intensity [6, 31]: 30 MFI | fluorescence intensity [7, 24]: 19.8 MFI | fluorescence intensity [7, 25]: 19.5 MFI | fluorescence intensity [7, 26]: 19.5 MFI | fluorescence intensity [7, 27]: 20 MFI | fluorescence intensity [7, 28]: 20.8 MFI | fluorescence intensity [7, 29]: 20.8 MFI | fluorescence intensity [7, 30]: 21.5 MFI | fluorescence intensity [7, 31]: 26 MFI | fluorescence intensity [8, 24]: 28.2 MFI | fluorescence intensity [8, 25]: 31 MFI | fluorescence intensity [8, 26]: 27.2 MFI | fluorescence intensity [8, 27]: 29.5 MFI | fluorescence intensity [8, 28]: 29 MFI | fluorescence intensity [8, 29]: 31.2 MFI | fluorescence intensity [8, 30]: 40.2 MFI | fluorescence intensity [8, 31]: 53.5 MFI | fluorescence intensity [9, 24]: 26.5 MFI | fluorescence intensity [9, 25]: 28 MFI | fluorescence intensity [9, 26]: 26 MFI | fluorescence intensity [9, 27]: 25.8 MFI | fluorescence intensity [9, 28]: 27.8 MFI | fluorescence intensity [9, 29]: 29.5 MFI | fluorescence intensity [9, 30]: 34.5 MFI | fluorescence intensity [9, 31]: 43.2 MFI | fluorescence intensity [10, 24]: 22.2 MFI | fluorescence intensity [10, 25]: 22 MFI | fluorescence intensity [10, 26]: 22 MFI | fluorescence intensity [10, 27]: 22.5 MFI | fluorescence intensity [10, 28]: 23.2 MFI | fluorescence intensity [10, 29]: 25.5 MFI | fluorescence intensity [10, 30]: 65.5 MFI | fluorescence intensity [10, 31]: 393 MFI | fluorescence intensity [11, 24]: 23 MFI | fluorescence intensity [11, 25]: 23.5 MFI | fluorescence intensity [11, 26]: 23 MFI | fluorescence intensity [11, 27]: 24 MFI | fluorescence intensity [11, 28]: 24 MFI | fluorescence intensity [11, 29]: 24 MFI | fluorescence intensity [11, 30]: 41.5 MFI | fluorescence intensity [11, 31]: 170 MFI | fluorescence intensity [12, 24]: 14.5 MFI | fluorescence intensity [12, 25]: 14 MFI | fluorescence intensity [12, 26]: 15 MFI | fluorescence intensity [12, 27]: 14.5 MFI | fluorescence intensity [12, 28]: 14 MFI | fluorescence intensity [12, 29]: 14.5 MFI | fluorescence intensity [12, 30]: 18 MFI | fluorescence intensity [12, 31]: 30 MFI | fluorescence intensity [13, 24]: 15 MFI | fluorescence intensity [13, 25]: 14.5 MFI | fluorescence intensity [13, 26]: 15.5 MFI | fluorescence intensity [13, 27]: 15.5 MFI | fluorescence intensity [13, 28]: 14.5 MFI | fluorescence intensity [13, 29]: 18.5 MFI | fluorescence intensity [13, 30]: 21.5 MFI | fluorescence intensity [13, 31]: 49 MFI | fluorescence intensity [14, 24]: 15.5 MFI | fluorescence intensity [14, 25]: 15 MFI | fluorescence intensity [14, 26]: 16.5 MFI | fluorescence intensity [14, 27]: 16.5 MFI | fluorescence intensity [14, 28]: 16.5 MFI | fluorescence intensity [14, 29]: 17.5 MFI | fluorescence intensity [14, 30]: 22.5 MFI | fluorescence intensity [14, 31]: 52.2 MFI | fluorescence intensity [15, 24]: 18.5 MFI | fluorescence intensity [15, 25]: 18 MFI | fluorescence intensity [15, 26]: 20.2 MFI | fluorescence intensity [15, 27]: 18.8 MFI | fluorescence intensity [15, 28]: 17.5 MFI | fluorescence intensity [15, 29]: 21.2 MFI | fluorescence intensity [15, 30]: 30.2 MFI | fluorescence intensity [15, 31]: 100 MFI | fluorescence intensity [16, 24]: 19 MFI | fluorescence intensity [16, 25]: 18 MFI | fluorescence intensity [16, 26]: 19.5 MFI | fluorescence intensity [16, 27]: 19 MFI | fluorescence intensity [16, 28]: 19.5 MFI | fluorescence intensity [16, 29]: 18.5 MFI | fluorescence intensity [16, 30]: 26 MFI | fluorescence intensity [16, 31]: 62.2 MFI | fluorescence intensity [17, 24]: 14.5 MFI | fluorescence intensity [17, 25]: 15.5 MFI | fluorescence intensity [17, 26]: 15.5 MFI | fluorescence intensity [17, 27]: 14.2 MFI | fluorescence intensity [17, 28]: 16.5 MFI | fluorescence intensity [17, 29]: 19.8 MFI | fluorescence intensity [17, 30]: 63.2 MFI | fluorescence intensity [17, 31]: 544 MFI | fluorescence intensity [18, 24]: 13 MFI | fluorescence intensity [18, 25]: 12.5 MFI | fluorescence intensity [18, 26]: 12 MFI | fluorescence intensity [18, 27]: 12 MFI | fluorescence intensity [18, 28]: 12.8 MFI | fluorescence intensity [18, 29]: 13 MFI | fluorescence intensity [18, 30]: 14.5 MFI | fluorescence intensity [18, 31]: 20.5 MFI | fluorescence intensity [19, 24]: 18.8 MFI | fluorescence intensity [19, 25]: 19.8 MFI | fluorescence intensity [19, 26]: 18.5 MFI | fluorescence intensity [19, 27]: 18.5 MFI | fluorescence intensity [19, 28]: 18 MFI | fluorescence intensity [19, 29]: 20.8 MFI | fluorescence intensity [19, 30]: 29 MFI | fluorescence intensity [19, 31]: 41.5 MFI | fluorescence intensity [20, 24]: 18 MFI | fluorescence intensity [20, 25]: 18.2 MFI | fluorescence intensity [20, 26]: 18 MFI | fluorescence intensity [20, 27]: 16.2 MFI | fluorescence intensity [20, 28]: 18 MFI | fluorescence intensity [20, 29]: 18 MFI | fluorescence intensity [20, 30]: 20 MFI | fluorescence intensity [20, 31]: 31 MFI | fluorescence intensity [21, 24]: 17.5 MFI | fluorescence intensity [21, 25]: 17 MFI | fluorescence intensity [21, 26]: 18.5 MFI | fluorescence intensity [21, 27]: 17.2 MFI | fluorescence intensity [21, 28]: 16.8 MFI | fluorescence intensity [21, 29]: 18 MFI | fluorescence intensity [21, 30]: 22 MFI | fluorescence intensity [21, 31]: 38.2 MFI | fluorescence intensity [22, 24]: 15 MFI | fluorescence intensity [22, 25]: 14.5 MFI | fluorescence intensity [22, 26]: 13.5 MFI | fluorescence intensity [22, 27]: 14.8 MFI | fluorescence intensity [22, 28]: 15 MFI | fluorescence intensity [22, 29]: 15 MFI | fluorescence intensity [22, 30]: 18.5 MFI | fluorescence intensity [22, 31]: 33.5 MFI | fluorescence intensity [23, 24]: 24.5 MFI | fluorescence intensity [23, 25]: 24.5 MFI | fluorescence intensity [23, 26]: 23 MFI | fluorescence intensity [23, 27]: 24 MFI

Reference: the supplement of paper PMC11438910
